# Source: the supplement of paper PMC7666118
# Amino acid sequences for entries named in this document (tags omitted). A change or cut given only in a name is not applied to a line headed by its entry.
# UniProt Q13496: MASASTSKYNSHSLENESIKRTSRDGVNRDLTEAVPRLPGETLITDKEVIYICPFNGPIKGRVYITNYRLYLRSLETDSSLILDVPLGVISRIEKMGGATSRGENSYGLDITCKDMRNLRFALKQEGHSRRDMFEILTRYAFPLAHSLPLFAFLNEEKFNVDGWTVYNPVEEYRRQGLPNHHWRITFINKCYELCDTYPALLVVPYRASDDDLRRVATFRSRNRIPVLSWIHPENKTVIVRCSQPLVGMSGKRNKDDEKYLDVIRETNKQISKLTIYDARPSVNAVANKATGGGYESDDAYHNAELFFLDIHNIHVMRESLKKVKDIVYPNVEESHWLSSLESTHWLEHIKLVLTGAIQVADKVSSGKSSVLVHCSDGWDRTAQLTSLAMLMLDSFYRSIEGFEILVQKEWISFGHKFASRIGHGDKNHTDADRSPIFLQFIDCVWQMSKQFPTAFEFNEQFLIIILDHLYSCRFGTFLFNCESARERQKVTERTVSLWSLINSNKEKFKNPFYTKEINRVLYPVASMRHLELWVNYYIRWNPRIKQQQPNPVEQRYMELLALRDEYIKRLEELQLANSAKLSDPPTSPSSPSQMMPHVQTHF
# UniProt Q8NBP5: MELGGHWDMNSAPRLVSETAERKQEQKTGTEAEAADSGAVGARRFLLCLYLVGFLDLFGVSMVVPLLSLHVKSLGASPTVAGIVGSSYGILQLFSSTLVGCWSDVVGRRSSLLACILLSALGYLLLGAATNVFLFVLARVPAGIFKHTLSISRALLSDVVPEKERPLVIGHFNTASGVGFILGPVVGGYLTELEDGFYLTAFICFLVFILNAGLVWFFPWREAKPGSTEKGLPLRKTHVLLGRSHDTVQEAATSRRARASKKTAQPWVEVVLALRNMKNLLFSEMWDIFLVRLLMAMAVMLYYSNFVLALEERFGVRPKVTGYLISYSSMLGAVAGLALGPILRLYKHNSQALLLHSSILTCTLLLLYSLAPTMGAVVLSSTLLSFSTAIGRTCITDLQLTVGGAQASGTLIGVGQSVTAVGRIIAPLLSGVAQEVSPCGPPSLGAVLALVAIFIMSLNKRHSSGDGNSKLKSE
# UniProt Q9Y6C9: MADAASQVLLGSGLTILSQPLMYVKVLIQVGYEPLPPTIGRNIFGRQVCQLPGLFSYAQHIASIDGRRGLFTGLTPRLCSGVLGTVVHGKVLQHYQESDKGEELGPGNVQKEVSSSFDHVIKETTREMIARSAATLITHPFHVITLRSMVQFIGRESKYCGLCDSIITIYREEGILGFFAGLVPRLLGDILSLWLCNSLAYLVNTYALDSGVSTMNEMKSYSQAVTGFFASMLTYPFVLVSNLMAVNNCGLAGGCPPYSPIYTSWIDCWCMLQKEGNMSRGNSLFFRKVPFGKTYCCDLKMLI
# UniProt Q7Z6M4: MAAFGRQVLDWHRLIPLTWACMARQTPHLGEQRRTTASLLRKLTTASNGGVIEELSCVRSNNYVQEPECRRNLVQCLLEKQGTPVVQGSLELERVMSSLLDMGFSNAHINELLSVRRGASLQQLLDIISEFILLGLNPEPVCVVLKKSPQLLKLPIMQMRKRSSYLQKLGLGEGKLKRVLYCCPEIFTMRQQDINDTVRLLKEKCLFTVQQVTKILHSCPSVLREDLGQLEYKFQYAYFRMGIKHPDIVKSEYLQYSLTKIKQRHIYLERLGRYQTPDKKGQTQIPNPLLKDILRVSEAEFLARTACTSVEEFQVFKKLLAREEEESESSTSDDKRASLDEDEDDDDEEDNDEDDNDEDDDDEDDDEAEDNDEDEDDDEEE
# UniProt A9UHW6: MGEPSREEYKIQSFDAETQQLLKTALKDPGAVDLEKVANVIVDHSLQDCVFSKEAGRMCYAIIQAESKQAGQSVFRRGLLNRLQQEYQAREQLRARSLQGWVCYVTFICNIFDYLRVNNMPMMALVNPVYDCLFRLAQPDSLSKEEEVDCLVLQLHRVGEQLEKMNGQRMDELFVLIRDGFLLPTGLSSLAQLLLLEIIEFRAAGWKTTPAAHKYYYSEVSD
# UniProt A6NJ78: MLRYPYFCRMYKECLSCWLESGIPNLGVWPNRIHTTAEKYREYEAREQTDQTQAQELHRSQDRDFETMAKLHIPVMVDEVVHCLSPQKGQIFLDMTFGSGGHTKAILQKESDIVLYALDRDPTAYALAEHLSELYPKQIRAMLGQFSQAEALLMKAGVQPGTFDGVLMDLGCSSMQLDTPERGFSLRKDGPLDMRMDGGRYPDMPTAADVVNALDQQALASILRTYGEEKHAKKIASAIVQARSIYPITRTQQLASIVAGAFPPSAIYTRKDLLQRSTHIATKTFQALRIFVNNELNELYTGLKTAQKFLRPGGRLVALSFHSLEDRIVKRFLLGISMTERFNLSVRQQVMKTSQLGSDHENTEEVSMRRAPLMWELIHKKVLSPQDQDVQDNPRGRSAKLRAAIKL
# UniProt Q9H7Z6: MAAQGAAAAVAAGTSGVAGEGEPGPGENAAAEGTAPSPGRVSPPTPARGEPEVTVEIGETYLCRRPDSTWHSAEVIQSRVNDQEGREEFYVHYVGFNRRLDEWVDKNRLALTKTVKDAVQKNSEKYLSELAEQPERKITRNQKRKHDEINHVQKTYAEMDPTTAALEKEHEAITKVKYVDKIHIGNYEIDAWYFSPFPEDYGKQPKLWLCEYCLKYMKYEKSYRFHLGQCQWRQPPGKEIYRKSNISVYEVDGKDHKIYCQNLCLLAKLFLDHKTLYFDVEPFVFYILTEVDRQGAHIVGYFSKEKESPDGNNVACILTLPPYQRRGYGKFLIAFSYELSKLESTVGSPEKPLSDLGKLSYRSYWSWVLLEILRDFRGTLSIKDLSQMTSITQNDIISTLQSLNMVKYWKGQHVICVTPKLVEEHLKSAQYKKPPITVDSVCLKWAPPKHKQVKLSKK
# UniProt Q14149: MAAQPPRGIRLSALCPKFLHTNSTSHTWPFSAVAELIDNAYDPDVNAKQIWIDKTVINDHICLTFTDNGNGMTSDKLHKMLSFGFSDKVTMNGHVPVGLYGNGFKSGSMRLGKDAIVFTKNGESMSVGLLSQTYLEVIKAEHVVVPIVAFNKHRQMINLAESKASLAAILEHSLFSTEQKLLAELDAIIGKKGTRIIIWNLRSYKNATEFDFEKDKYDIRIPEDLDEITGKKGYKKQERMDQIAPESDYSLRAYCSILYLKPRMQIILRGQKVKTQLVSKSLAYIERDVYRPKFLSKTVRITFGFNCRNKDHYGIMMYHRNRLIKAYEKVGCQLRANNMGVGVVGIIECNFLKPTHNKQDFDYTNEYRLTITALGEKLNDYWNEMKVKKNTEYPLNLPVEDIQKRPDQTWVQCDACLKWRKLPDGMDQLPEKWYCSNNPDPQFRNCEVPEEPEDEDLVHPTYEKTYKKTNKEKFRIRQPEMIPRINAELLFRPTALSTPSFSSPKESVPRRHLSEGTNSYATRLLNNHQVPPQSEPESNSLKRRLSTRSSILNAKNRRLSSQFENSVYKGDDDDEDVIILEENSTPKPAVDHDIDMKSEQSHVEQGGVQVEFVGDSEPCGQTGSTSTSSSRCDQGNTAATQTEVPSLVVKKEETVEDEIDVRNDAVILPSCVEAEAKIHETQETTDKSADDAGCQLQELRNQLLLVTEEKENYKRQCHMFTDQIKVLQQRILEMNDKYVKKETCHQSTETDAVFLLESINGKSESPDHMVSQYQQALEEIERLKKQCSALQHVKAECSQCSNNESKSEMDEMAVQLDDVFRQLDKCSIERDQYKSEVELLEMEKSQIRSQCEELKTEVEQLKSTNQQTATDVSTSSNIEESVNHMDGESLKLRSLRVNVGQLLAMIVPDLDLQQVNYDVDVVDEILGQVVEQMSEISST
# UniProt Q5JPI9: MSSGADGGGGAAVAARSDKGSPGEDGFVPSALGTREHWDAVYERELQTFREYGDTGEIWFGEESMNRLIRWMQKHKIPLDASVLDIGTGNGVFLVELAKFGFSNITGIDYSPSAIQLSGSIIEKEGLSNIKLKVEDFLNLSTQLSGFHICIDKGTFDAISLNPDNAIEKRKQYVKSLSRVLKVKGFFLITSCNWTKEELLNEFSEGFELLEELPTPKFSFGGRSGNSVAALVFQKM
# UniProt Q86VX9: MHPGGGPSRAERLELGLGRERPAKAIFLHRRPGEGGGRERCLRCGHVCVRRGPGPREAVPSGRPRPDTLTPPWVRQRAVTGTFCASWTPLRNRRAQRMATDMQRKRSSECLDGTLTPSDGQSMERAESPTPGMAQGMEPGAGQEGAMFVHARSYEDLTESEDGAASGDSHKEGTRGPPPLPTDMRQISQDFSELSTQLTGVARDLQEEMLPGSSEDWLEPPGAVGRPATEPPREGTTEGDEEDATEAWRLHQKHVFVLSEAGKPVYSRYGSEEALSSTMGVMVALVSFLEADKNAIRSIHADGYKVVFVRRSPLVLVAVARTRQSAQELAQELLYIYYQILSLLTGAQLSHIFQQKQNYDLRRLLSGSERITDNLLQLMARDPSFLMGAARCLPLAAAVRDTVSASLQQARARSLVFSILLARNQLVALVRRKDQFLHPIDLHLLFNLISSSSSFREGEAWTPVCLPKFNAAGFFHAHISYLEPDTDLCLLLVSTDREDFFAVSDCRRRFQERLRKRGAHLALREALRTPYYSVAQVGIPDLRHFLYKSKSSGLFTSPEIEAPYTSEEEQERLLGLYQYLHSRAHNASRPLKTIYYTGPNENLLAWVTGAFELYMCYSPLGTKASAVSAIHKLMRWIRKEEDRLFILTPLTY
# UniProt Q9Y316: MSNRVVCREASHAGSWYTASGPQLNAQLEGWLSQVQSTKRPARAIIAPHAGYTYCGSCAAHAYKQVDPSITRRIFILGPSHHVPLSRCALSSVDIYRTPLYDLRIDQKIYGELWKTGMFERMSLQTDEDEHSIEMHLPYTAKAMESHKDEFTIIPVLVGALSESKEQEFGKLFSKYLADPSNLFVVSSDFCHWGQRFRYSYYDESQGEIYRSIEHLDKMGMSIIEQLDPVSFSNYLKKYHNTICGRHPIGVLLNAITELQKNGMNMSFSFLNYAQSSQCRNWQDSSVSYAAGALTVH
# UniProt P05164: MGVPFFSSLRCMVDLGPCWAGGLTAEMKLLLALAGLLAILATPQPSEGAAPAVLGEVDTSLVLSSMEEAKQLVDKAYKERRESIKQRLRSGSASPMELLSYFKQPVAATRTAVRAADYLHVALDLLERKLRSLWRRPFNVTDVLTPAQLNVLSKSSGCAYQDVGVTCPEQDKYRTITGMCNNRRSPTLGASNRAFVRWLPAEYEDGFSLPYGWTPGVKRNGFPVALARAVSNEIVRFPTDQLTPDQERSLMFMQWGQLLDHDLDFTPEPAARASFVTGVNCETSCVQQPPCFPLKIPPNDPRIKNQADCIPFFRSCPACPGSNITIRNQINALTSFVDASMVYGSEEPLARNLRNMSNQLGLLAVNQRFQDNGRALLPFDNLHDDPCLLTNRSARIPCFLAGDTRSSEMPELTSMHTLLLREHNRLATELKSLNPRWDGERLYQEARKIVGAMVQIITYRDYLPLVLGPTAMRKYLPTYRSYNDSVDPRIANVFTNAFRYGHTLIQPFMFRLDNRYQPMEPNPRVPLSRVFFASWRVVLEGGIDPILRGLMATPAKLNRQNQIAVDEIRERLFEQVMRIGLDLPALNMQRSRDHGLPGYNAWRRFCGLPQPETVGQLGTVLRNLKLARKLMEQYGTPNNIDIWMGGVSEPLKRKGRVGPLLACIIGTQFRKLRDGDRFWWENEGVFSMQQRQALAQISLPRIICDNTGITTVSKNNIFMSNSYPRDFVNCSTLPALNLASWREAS
# UniProt Q8IWA4: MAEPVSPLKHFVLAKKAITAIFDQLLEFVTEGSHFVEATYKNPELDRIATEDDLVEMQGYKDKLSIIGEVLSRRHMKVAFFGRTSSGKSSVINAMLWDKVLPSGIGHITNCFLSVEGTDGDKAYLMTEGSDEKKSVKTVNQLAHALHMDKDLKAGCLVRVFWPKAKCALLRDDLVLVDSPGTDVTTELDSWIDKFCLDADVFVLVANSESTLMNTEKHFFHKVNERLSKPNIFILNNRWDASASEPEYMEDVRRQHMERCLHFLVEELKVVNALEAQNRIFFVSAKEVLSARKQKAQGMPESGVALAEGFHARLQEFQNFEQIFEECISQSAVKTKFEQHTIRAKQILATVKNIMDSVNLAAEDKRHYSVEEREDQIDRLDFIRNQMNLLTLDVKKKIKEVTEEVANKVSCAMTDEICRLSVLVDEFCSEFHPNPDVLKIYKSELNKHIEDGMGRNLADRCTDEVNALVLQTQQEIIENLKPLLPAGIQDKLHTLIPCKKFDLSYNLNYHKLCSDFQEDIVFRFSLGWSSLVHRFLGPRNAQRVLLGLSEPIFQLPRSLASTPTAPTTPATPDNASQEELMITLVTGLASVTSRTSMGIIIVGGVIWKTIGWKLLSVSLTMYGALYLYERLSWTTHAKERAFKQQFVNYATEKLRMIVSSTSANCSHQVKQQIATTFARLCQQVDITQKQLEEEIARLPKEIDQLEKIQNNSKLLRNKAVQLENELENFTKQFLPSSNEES
# The other results are listed elsewhere or left out.
# Compound: COc1ccc(Cn2ccc3cc(C)c(C(=O)NO)cc32)cc1
# Assay: dose-dependent thermal stabilisation call (2D-TPP, DLPTP, 10% FDR) (binary (1 = stabilised)); higher = stabilised by the compound
# Conditions: system: HL-60 intact cells; concentration range 0.04-10 µM
# Experimental: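 2D thermal proteome profiling in intact HL-60 cells treated with BRD-3811 (0, 0.04, 0.29, 2, 10 uM) for 90 min at 37 C, then heated 3 min at one of 12 temperatures (42-63.9 C). Soluble protein was quantified by TMT10 MS. The value is the DLPTP call of the paper: dose-dependent thermal stabilisation over all temperatures at 10% FDR (F-test of a dose-response against a flat model); one experiment, one call per tested protein.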
row,Target,dose-dependent thermal stabilisation call
1,MTM1 (UniProt Q13496),inactive: 0
2,MGAM (UniProt O43451),inactive: 0
3,MTMR14 (UniProt Q8NCE2),inactive: 0
4,MFSD9 (UniProt Q8NBP5),inactive: 0
5,MTCH2 (UniProt Q9Y6C9),inactive: 0
6,MYO18A,inactive: 0
7,MTERFD2 (UniProt Q7Z6M4),inactive: 0
8,MIF4GD (UniProt A9UHW6),inactive: 0
9,MTHFD2 (UniProt P13995),inactive: 0
10,MTMR2 (UniProt Q13614),inactive: 0
11,MKI67 (UniProt P46013),inactive: 0
12,MRPS31 (UniProt Q92665),inactive: 0
13,MRPS2 (UniProt Q9Y399),inactive: 0
14,MIPEP (UniProt Q99797),inactive: 0
15,METT5D1 (UniProt A6NJ78),inactive: 0
16,MYST1 (UniProt Q9H7Z6),inactive: 0
17,MRC2 (UniProt Q9UBG0),inactive: 0
18,MORC3 (UniProt Q14149),inactive: 0
19,MTRF1L (UniProt Q9UGC7),inactive: 0
20,MRPL47 (UniProt Q9HD33),inactive: 0

row,Target,dose-dependent thermal stabilisation call
1,METTL10 (UniProt Q5JPI9),inactive: 0
2,MON1A (UniProt Q86VX9),inactive: 0
3,MED27 (UniProt Q6P2C8),inactive: 0
4,MED28 (UniProt Q9H204),inactive: 0
5,MRPS7 (UniProt Q9Y2R9),inactive: 0
6,MRPS12 (UniProt O15235),inactive: 0
7,MICAL3 (UniProt Q7RTP6),inactive: 0
8,MEMO1 (UniProt Q9Y316),inactive: 0
9,MFF (UniProt Q9GZY8),inactive: 0
10,MPO (UniProt P05164),inactive: 0
11,MOBKL3 (UniProt Q9Y3A3),inactive: 0
12,MFN1 (UniProt Q8IWA4),inactive: 0
13,MTSS1L (UniProt Q765P7),inactive: 0
14,MGC3207,inactive: 0
15,MYO9B (UniProt Q13459),inactive: 0
16,MRPS15 (UniProt P82914),inactive: 0
17,MRPS27 (UniProt Q92552),inactive: 0
18,MRPL43 (UniProt Q8N983),inactive: 0
19,MYB (UniProt P10242),inactive: 0
20,MRPL41 (UniProt Q8IXM3),inactive: 0

# Single entries from above:
# For dose-dependent thermal stabilisation call, MRPS27 (UniProt Q92552) has inactive: 0
# For dose-dependent thermal stabilisation call, MEMO1 (UniProt Q9Y316) has inactive: 0
# For dose-dependent thermal stabilisation call, MPO (UniProt P05164) has inactive: 0
